The experiment deals with Hrp1 (affinity purification experiments with Hrp3) (S. pombe) (UniProt Q9US25). In words: affinity purification (co-purification); preliminary experiments; manuscript in preparation; no details given.

Amino acid sequences for entries named in this document (tags omitted).
UniProt Q9US25: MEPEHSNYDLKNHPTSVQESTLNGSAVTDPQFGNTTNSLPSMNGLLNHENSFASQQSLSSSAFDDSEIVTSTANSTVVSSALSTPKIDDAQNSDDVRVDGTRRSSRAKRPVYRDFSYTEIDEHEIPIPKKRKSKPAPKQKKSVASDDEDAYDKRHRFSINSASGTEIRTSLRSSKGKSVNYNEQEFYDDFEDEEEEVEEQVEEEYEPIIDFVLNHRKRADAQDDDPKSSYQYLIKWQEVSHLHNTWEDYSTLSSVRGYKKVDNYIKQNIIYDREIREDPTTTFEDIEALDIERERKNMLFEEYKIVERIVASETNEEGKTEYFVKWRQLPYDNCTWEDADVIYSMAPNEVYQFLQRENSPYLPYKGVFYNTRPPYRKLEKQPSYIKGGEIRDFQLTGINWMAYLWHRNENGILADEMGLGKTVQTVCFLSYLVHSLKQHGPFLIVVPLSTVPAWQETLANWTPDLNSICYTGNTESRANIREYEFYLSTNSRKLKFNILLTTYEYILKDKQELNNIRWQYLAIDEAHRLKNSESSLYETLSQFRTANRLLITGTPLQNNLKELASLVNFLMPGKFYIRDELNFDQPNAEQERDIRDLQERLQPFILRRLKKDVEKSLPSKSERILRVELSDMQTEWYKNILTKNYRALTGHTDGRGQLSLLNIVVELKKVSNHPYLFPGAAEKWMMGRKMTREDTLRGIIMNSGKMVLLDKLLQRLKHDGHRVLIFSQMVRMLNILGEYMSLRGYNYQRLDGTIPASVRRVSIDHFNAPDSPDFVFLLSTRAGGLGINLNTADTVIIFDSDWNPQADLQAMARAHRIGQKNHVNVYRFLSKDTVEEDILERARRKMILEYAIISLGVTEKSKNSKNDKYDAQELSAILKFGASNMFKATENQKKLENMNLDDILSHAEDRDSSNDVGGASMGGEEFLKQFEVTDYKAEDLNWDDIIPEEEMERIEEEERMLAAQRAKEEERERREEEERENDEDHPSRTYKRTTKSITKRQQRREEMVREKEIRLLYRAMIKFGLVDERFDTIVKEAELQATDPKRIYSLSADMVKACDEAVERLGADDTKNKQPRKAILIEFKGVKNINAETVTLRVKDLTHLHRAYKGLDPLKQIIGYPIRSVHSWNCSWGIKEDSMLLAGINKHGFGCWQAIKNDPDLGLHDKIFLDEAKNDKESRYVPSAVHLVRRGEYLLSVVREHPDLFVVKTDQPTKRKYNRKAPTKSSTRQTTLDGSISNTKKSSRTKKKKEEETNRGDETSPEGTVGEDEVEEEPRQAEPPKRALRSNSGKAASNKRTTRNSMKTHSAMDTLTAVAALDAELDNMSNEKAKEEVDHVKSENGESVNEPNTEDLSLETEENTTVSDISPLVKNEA
UniProt O14139: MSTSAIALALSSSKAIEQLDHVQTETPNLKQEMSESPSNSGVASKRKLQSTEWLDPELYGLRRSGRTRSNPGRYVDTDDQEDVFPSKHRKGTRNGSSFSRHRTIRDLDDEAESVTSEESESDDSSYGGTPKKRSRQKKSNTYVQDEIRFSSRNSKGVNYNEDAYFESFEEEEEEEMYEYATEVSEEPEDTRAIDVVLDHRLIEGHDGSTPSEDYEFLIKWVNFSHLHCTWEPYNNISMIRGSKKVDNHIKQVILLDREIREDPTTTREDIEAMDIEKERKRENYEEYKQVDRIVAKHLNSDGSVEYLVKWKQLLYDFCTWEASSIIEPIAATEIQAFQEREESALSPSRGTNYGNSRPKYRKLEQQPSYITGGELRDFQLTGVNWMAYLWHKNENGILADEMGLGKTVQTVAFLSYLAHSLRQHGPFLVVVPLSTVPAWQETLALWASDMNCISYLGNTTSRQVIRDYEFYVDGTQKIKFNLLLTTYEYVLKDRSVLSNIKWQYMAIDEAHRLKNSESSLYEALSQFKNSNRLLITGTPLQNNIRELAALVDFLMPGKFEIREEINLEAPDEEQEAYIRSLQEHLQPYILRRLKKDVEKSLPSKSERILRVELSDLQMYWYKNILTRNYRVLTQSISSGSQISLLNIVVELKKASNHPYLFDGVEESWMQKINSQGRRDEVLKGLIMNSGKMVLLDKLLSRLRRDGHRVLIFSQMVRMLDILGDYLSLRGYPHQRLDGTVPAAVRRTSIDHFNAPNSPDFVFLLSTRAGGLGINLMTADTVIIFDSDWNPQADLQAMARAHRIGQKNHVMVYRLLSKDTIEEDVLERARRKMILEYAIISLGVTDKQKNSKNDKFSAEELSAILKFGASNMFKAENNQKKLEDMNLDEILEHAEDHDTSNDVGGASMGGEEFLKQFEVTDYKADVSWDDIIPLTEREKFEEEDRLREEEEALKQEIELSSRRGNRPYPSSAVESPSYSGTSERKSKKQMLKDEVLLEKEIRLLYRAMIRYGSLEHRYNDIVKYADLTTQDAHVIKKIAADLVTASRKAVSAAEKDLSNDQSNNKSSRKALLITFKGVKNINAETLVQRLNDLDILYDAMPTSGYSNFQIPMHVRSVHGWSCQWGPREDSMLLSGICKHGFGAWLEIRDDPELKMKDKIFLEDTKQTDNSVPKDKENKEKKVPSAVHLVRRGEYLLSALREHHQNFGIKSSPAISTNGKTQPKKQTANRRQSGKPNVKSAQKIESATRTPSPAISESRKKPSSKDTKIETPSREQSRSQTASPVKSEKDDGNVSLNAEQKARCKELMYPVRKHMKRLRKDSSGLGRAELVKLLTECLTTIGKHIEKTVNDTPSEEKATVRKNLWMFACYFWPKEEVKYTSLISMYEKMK

1 substance from article PMC1849891 can be followed below.

Results are given in words; binding and its absence hold for the method and conditions named. Some entries that bind do so weakly or less than the wild type.

With Hrp3 (from UniProt O14139 1-1388), the binding result was “binds”.
